Results deposited as PubChem BioAssay AID743454 (Peter MacCallum Cancer Centre, 2014).
The deposit covers about 18,000 reagents; below is a part drawn at random. In the full data, 450 (2.5%) got an active call. 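Single biological run; no consistent viability z cut-off exists, so the class columns, not z-scores, define the calls.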 Unmarked entries are inactive. Reagent sequences are not shown.

Purpose: 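Knock-downs lowering viability or raising caspase 3/7 activity in vorinostat-treated resistant cells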 (primary screen)
Cell system: human HCT116-VR colon cancer cells, selected for vorinostat resistance
Knock-down reagent: siRNA pool against human genes, 40 nM siRNA pool
Time to read-out: vorinostat for 24 h, read-out about 72 h after transfection
Treatment: vorinostat at 2.5 µM final
Measured: 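Two measures, CellTiter-Fluor viability and luminescent caspase 3/7 activity, each as fold change against same-plate mock wells, mean of duplicates, then screen-wide robust z-score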
Reading the numbers: viability robust z-score: higher = more viable cells than screen typical; caspase robust z-score: higher = more caspase 3/7 activity than screen typical
Active means: 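Hits are knock-downs in viability class RV1/RV2 or caspase class CA1/CA2, excluding ones that killed cells in the no-drug cell-count arm; hits then retested with single siRNAs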

The opening 2 records, ahead of the listing:
no.	gene symbol	viability hit class	caspase hit class	viability robust z-score	caspase robust z-score
1	NFKBIZ (NFKB inhibitor zeta)	no change	no change	0.15	0.7
2	SLC35F3	no change	no change	0.88	-0.46

Results, from the first entry:
no.	gene symbol	viability hit class	caspase hit class	viability robust z-score	caspase robust z-score
1	NFKBIZ (NFKB inhibitor zeta)	no change	no change	0.15	0.7
2	SLC35F3	no change	no change	0.88	-0.46
3	CLMB (calcimembrin)	no change	no change	1.15	0.68
4	PXN (paxillin)	no change	no change	0.1	-0.82
5	GRAMD1A (GRAM domain containing 1A)	no change	no change	-0.26	0.59
6	CATSPERE (catsper channel auxiliary subunit epsilon)	no change	no change	1.3	-0.78
7	FKTN (fukutin)	no change	no change	0.99	-0.08
8	C15orf40 (chromosome 15 open reading frame 40)	no change	no change	-0.44	-0.75
9	SMCR8 (SMCR8-C9orf72 complex subunit)	no change	no change	-2.25	4.88
10	SPACDR (sperm acrosome developmental regulator)	no change	no change	-0.76	1.35
11	HAO1 (hydroxyacid oxidase 1)	no change	no change	-0.59	0.26
12	SUV39H1 (SUV39H1 histone lysine methyltransferase)	no change	no change	-0.38	-0.45
13	OR5H1 (olfactory receptor family 5 subfamily H member 1)	no change	no change	0.92	-0.56
14	NLK (nemo like kinase)	no change	no change	0.86	-0.52
15	SPINK2 (serine peptidase inhibitor Kazal type 2)	no change	no change	-0.39	0.34
16	VGF (VGF nerve growth factor inducible)	no change	no change	-0.14	-0.18
17	KIAA1958	no change	no change	1.52	-0.9
18	USP17L2 (ubiquitin specific peptidase 17 like family member 2)	no change	no change	0.12	2.51
19	TFAP2B (transcription factor AP-2 beta)	no change	no change	1.01	0.38
20	GDE1 (glycerophosphodiester phosphodiesterase 1)	no change	no change	-0.81	-0.94
21	FTSJ1 (FtsJ RNA 2'-O-methyltransferase 1)	no change	no change	-0.26	-1.45
22	ABCA2 (ATP binding cassette subfamily A member 2)	no change	no change	-2.06	2.29
23	PSMF1 (proteasome inhibitor subunit 1)	no change	no change	-0.45	2.08
